Test results: PMC8782721
Results are given in words; binding and its absence hold for the method and conditions named. In cells and extracts the contact can be indirect. Some entries that bind do so weakly or less than the wild type. Each block holds one molecule with its values, some of them ahead of it.

Chains of the proteins cited; added tags and fusions are not shown.
UniProt Q13185: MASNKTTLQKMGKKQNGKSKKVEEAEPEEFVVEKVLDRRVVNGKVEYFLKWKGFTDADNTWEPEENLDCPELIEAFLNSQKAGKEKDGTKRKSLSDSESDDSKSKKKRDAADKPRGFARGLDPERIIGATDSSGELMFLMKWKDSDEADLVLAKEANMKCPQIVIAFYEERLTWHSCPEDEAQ
UniProt Q09028: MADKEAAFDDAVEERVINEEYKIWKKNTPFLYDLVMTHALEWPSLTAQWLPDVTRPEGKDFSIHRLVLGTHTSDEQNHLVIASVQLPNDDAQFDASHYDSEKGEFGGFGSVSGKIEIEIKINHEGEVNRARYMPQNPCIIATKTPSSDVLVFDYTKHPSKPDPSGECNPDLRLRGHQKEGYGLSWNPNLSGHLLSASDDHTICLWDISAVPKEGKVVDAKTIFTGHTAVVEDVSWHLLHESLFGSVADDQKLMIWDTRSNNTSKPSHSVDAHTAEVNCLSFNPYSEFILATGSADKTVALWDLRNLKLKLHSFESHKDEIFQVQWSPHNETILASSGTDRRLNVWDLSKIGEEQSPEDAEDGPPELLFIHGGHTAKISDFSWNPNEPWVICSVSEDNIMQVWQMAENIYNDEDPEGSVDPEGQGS

Columns and labels:
[1] = molecular target: Chromobox homolog 3 (CBX3) (human (endogenous in A549 and H1299)) (UniProt Q13185); assay: proximity ligation; proximity ligation assay (PLA) in A549 cells
[2] = molecular target: Chromobox homolog 3 (CBX3) (human (endogenous in A549 and H1299)) (UniProt Q13185); assay: co-IP; whole cell lysates of A549 and H1299 cells incubated with Protein G agarose and primary antibody (CBX3, TRIM28, TRIM24 or RBBP4) or IgG; precipitates analysed by immunoblotting

binding [1]: binds
binding [2]: binds
Molecule: RBBP4 (from UniProt Q09028 1-425)

binding [1]: binds
binding [2]: binds
B1: TRIM24 (protein, UniProt O15164 1-1050)
chain: MEVAVEKAVAAAAAASAAASGGPSAAPSGENEAESRQGPDSERGGEAARLNLLDTCAVCHQNIQSRAPKLLPCLHSFCQRCLPAPQRYLMLPAPMLGSAETPPPVPAPGSPVSGSSPFATQVGVIRCPVCSQECAERHIIDNFFVKDTTEVPSSTVEKSNQVCTSCEDNAEANGFCVECVEWLCKTCIRAHQRVKFTKDHTVRQKEEVSPEAVGVTSQRPVFCPFHKKEQLKLYCETCDKLTCRDCQLLEHKEHRYQFIEEAFQNQKVIIDTLITKLMEKTKYIKFTGNQIQNRIIEVNQNQKQVEQDIKVAIFTLMVEINKKGKALLHQLESLAKDHRMKLMQQQQEVAGLSKQLEHVMHFSKWAVSSGSSTALLYSKRLITYRLRHLLRARCDASPVTNNTIQFHCDPSFWAQNIINLGSLVIEDKESQPQMPKQNPVVEQNSQPPSGLSSNQLSKFPTQISLAQLRLQHMQQQVMAQRQQVQRRPAPVGLPNPRMQGPIQQPSISHQQPPPRLINFQNHSPKPNGPVLPPHPQQLRYPPNQNIPRQAIKPNPLQMAFLAQQAIKQWQISSGQGTPSTTNSTSSTPSSPTITSAAGYDGKAFGSPMIDLSSPVGGSYNLPSLPDIDCSSTIMLDNIVRKDTNIDHGQPRPPSNRTVQSPNSSVPSPGLAGPVTMTSVHPPIRSPSASSVGSRGSSGSSSKPAGADSTHKVPVVMLEPIRIKQENSGPPENYDFPVVIVKQESDEESRPQNANYPRSILTSLLLNSSQSSTSEETVLRSDAPDSTGDQPGLHQDNSSNGKSEWLDPSQKSPLHVGETRKEDDPNEDWCAVCQNGGELLCCEKCPKVFHLSCHVPTLTNFPSGEWICTFCRDLSKPEVEYDCDAPSHNSEKKKTEGLVKLTPIDKRKCERLLLFLYCHEMSLAFQDPVPLTVPDYYKIIKNPMDLSTIKKRLQEDYSMYSKPEDFVADFRLIFQNCAEFNEPDSEVANAGIKLENYFEELLKNLYPEKRFPKPEFRNESEDNKFSDDSDDDFVQPRKKRLKSIEERQLLK
